These are yes or no findings as the source states them, for the method shown. Some results given as binding are weak or reduced against the parent protein; the word gives no strength. Where a sequence is shown, tags or fusion partners need not be part of it.
Columns and labels:
Details in all cases: remark: other sources report otherwise
[1] = target: T1, TLR2^CFP (TLR2 tagged at its C-terminus with cyan fluorescent protein), stably expressed in HEK293 cells (human), O60603; assay: confocal microscopy of TLR1-TLR2 co-transfected cells incubated with anti-TLR2
[2] = target: T1, TLR2^CFP (TLR2 tagged at its C-terminus …); assay: confocal microscopy of living co-transfected HEK293 cells; antibody-induced capping
[3] = target: T1, TLR2^CFP (TLR2 tagged at its C-terminus …); assay: confocal microscopy of transfected HEK cells
[4] = target: T1, TLR2^CFP (TLR2 tagged at its C-terminus …); assay: antibody-induced capping (TL2.1 plus Alexa647 goat anti-mouse), confocal microscopy

Measured: binding

B1: TLR1^YFP (TLR1 tagged at its C-terminus with yellow fluorescent protein), stably expressed in HEK293 cells, Q15399 25-786 (receptor, UniProt Q15399 25-786, looked up, not shown: large carriers)
chain: SEFLVDRSKNGLIHVPKDLSQKTTILNISQNYISELWTSDILSLSKLRILIISHNRIQYLDISVFKFNQELEYLDLSHNKLVKISCHPTVNLKHLDLSFNAFDALPICKEFGNMSQLKFLGLSTTHLEKSSVLPIAHLNISKVLLVLGETYGEKEDPEGLQDFNTESLHIVFPTNKEFHFILDVSVKTVANLELSNIKCVLEDNKCSYFLSILAKLQTNPKLSNLTLNNIETTWNSFIRILQLVWHTTVWYFSISNVKLQGQLDFRDFDYSGTSLKALSIHQVVSDVFGFPQSYIYEIFSNMNIKNFTVSGTRMVHMLCPSKISPFLHLDFSNNLLTDTVFENCGHLTELETLILQMNQLKELSKIAEMTTQMKSLQQLDISQNSVSYDEKKGDCSWTKSLLSLNMSSNILTDTIFRCLPPRIKVLDLHSNKIKSIPKQVVKLEALQELNVAFNSLTDLPGCGSFSSLSVLIIDHNSVSHPSADFFQSCQKMRSIKAGDNPFQCTCELGEFVKNIDQVSSEVLEGWPDSYKCDYPESYRGTLLKDFHMSELSCNITLLIVTIVATMLVLAVTVTSLCSYLDLPWYLRMVCQWTQTRRRARNIPLEELQRNLQFHAFISYSGHDSFWVKNELLPNLEKEGMQICLHERNFVPGKSIVENIITCIEKSYKSIFVLSPNFVQSEWCHYELYFAHHNLFHEGSNSLILILLEPIPQYSIPSSYHKLKSLMARRTYLEWPKEKSKRGLFWANLRAAINIKLTEQAKK
binds: all assays above
